Measurements reported in the supplement of paper PMC8728848.
The other results are listed elsewhere or left out.

Legend:
Assay in all cases: glycan array binding signal (z-score within array); higher = stronger binding
Conditions in all cases: glycan notation: IUPAC condensed, linker removed
[1] = target: Gal(b1-3)GlcNAc(b1-2)Man(a1-3)[Gal(b1-3)GlcNAc(b1-2)Man(a1-6)]Man(b1-4)GlcNAc(b1-4)[Fuc(a1-6)]GlcNAc
In short: (§1)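 Glycan array binding is given as a within-array Z-score, which can be read as non-binding when negative. The arrays, 3228 of them, came from the Consortium for Functional Glycomics database and were retained only where the protein sequence was available. Z-scores were averaged across arrays of the same protein sequence at different concentrations or buffers and across linkers.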

[2] = target: Gal(b1-3)GlcNAc(b1-2)Man(a1-3)[GlcNAc(b1-4)][Gal(b1-3)GlcNAc(b1-2)Man(a1-6)]Man(b1-4)GlcNAc(b1-4)GlcNAc
In short: as §1

[3] = target: Gal(b1-3)GlcNAc(b1-2)[Gal(b1-3)GlcNAc(b1-6)]Man(a1-6)[Gal(b1-3)GlcNAc(b1-2)Man(a1-3)]Man(b1-4)GlcNAc(b1-4)GlcNAc
In short: as §1

[4] = target: Gal(b1-3)GlcNAc(b1-3)Gal(b1-3)GlcNAc
In short: as §1

[5] = target: Gal(b1-3)GlcNAc(b1-3)Gal(b1-4)Glc
In short: as §1

[6] = target: Gal(b1-3)GlcNAc(b1-3)Gal(b1-4)GlcNAc
In short: as §1

[7] = target: Gal(b1-3)GlcNAc(b1-3)Gal(b1-4)GlcNAc(b1-2)Man(a1-3)[Gal(b1-3)GlcNAc(b1-3)Gal(b1-4)GlcNAc(b1-2)Man(a1-6)]Man(b1-4)GlcNAc(b1-4)GlcNAc
In short: as §1

[8] = target: Gal(b1-3)GlcNAc(b1-3)Gal(b1-4)GlcNAc(b1-2)[Gal(b1-3)GlcNAc(b1-3)Gal(b1-4)GlcNAc(b1-6)]Man(a1-6)[Gal(b1-3)GlcNAc(b1-3)Gal(b1-4)GlcNAc(b1-2)Man(a1-3)]Man(b1-4)GlcNAc(b1-4)[Fuc(a1-6)]GlcNAc
In short: as §1

[9] = target: Gal(b1-3)GlcNAc(b1-3)Gal(b1-4)GlcNAc(b1-3)Gal(b1-4)GlcNAc(b1-2)[Gal(b1-3)GlcNAc(b1-3)Gal(b1-4)GlcNAc(b1-3)Gal(b1-4)GlcNAc(b1-6)]Man(a1-6)[Gal(b1-3)GlcNAc(b1-3)Gal(b1-4)GlcNAc(b1-3)Gal(b1-4)GlcNAc(b1-2)Man(a1-3)]Man(b1-4)GlcNAc(b1-4)[Fuc(a1-6)]GlcNAc
In short: as §1

[10] = target: Gal(b1-3)GlcNAc(b1-3)Gal(b1-4)GlcNAc(b1-6)[Gal(b1-3)GlcNAc(b1-3)]Gal(b1-4)Glc
In short: as §1

[11] = target: Gal(b1-3)GlcNAc(b1-3)Gal(b1-4)[Fuc(a1-3)]GlcNAc
In short: as §1

[12] = target: Gal(b1-3)GlcNAc(b1-3)Gal(b1-4)[Fuc(a1-3)]GlcNAc(b1-6)[Gal(b1-3)GlcNAc(b1-3)]Gal(b1-4)Glc
In short: as §1

[13] = target: Gal(b1-3)GlcNAc(b1-3)GalNAc
In short: as §1

[14] = target: Gal(b1-3)GlcNAc(b1-6)Gal(b1-4)GlcNAc
In short: as §1

[15] = target: Gal(b1-3)GlcNAc(b1-6)GalNAc
In short: as §1

[16] = target: Gal(b1-3)GlcNAc(b1-6)[Gal(b1-3)]GalNAc
In short: as §1

Gal(b1-3)GlcNAc6S = target: Gal(b1-3)GlcNAc6S
In short: as §1

[17] = target: Gal(b1-3)[Fuc(a1-4)]GlcNAc
In short: as §1

[18] = target: Gal(b1-3)[Fuc(a1-4)]GlcNAc(b1-2)Man
In short: as §1

[19] = target: Gal(b1-3)[Fuc(a1-4)]GlcNAc(b1-2)Man(a1-3)[Gal(b1-3)[Fuc(a1-4)]GlcNAc(b1-2)Man(a1-6)]Man(b1-4)GlcNAc(b1-4)[Fuc(a1-6)]GlcNAc
In short: as §1

[20] = target: Gal(b1-3)[Fuc(a1-4)]GlcNAc(b1-3)Gal(b1-3)[Fuc(a1-4)]GlcNAc
In short: as §1

[21] = target: Gal(b1-3)[Fuc(a1-4)]GlcNAc(b1-3)Gal(b1-4)[Fuc(a1-3)]GlcNAc
In short: as §1

[22] = target: Gal(b1-3)[Fuc(a1-4)]GlcNAc(b1-6)GalNAc
In short: as §1

[23] = target: Gal(b1-3)[GlcNAc(b1-6)]GalNAc
In short: as §1

[24] = target: Gal(b1-3)[Neu5Ac(a2-6)]GalNAc
In short: as §1

[25] = target: Gal(b1-3)[Neu5Ac(a2-6)]GlcNAc(b1-4)Gal(b1-4)Glc
In short: as §1

[26] = target: Gal(b1-3)[Neu5Ac(b2-6)]GalNAc
In short: as §1

Gal(b1-4)Gal = target: Gal(b1-4)Gal
In short: as §1

[27] = target: Gal(b1-4)GalNAc(a1-3)[Fuc(a1-2)]Gal(b1-4)GlcNAc
In short: as §1

[28] = target: Gal(b1-4)GalNAc(b1-3)[Fuc(a1-2)]Gal(b1-4)GlcNAc
In short: as §1

B1: Awp1 (Candida glabrata) (protein)
chain: MSLITIFAFLIKATLVLSLDILTPTTLTGDQTFNEDVSVVSSLTLNDGSQYLFNNLLQIAPSSASVTANALAAVSVFTFSLPPSSSLSNSGTLIISNSNTGPSTEQHIVITPNVMANTGTITLSLAHTNTDSSSTLIIDPVTFYNTGTINYESIGSETNDPSLTGNILSIGSSGRTLQNLGTINLNAANSYYLLGTITENSGSINVQKGFLYVNALDFIGNTINLSTTTALAFISPVSQVVRVRGVFFGNIIASVGSSGTFSYNTQTGILTVTTNGVYSYDIGCGYNPALMSGQQETLSFQGNPYDTFLVLVNQPIPSDLTCAAVSSSITPSSSVEPSSSVVPSSSVEPSSSVEPSSSVEPSSSVEPSSSVEPSSSVEPSSSVEPSSSVEPSSSVEPSSSVEPSSSVEPSSSVEPSSSVEPSSSVEPSSSVEPSSSVEPSSSVEPSSSVEPSSSVEPSSLIVPSSSVEPSSSVLPSSSVVPSSSVEPSTPPIPSSSVEPSSSVVPSSPAVPSSSVEPSTPPIPSSSVVSASVFDTSSTLPSSPSVPPSSVSPSTISTPSSSAAPSSFCPTCVSSGTPPAPSSSAIVPTSSAGGGNGGDNREPGAAGQPGAAGQPGAAGQPGAAGQPGAAGQPGAAGQPGAAGQPGAAGQPGAAGQPGAAGQPGAGFGVGSEQPTPGAGAGSGSADGNQSGTGSGTGNGQQGSGQAGSGQAGSGQEGSGQAGSGQAGSGQAGSGQAGSGQAGLDNTASGQSEGGQASAMDGDQSGRDGQSNSGSLLQPNAQQGTGSGTGSDIGADQASGESPGQIGDAQPGSGTDQSSGRHSLAAEARTSQSHSLAADARTRSTTRQTSVIAPDTAPGTASGTAPGTAPGTAVVTTFHGCGTVNHKGMINILLALALLVLL
glycan array binding signal (z-score) [1]: 0.44 | glycan array binding signal (z-score) [2]: -1.44 | glycan array binding signal (z-score) [3]: 2.35 | glycan array binding signal (z-score) [4]: 0.181 | glycan array binding signal (z-score) [5]: 0.354 | glycan array binding signal (z-score) [6]: 0.12 | glycan array binding signal (z-score) [7]: -1.07 | glycan array binding signal (z-score) [8]: 1.68 | glycan array binding signal (z-score) [9]: -1.15 | glycan array binding signal (z-score) [10]: 2.29 | glycan array binding signal (z-score) [11]: -1.27 | glycan array binding signal (z-score) [12]: -0.137 | glycan array binding signal (z-score) [13]: -0.53 | glycan array binding signal (z-score) [14]: -0.148 | glycan array binding signal (z-score) [15]: 1.17 | glycan array binding signal (z-score) [16]: -0.25 | glycan array binding signal (z-score) (Gal(b1-3)GlcNAc6S): 1.32 | glycan array binding signal (z-score) [17]: -0.423 | glycan array binding signal (z-score) [18]: -0.994 | glycan array binding signal (z-score) [19]: 0.673 | glycan array binding signal (z-score) [20]: -0.848 | glycan array binding signal (z-score) [21]: -1.16 | glycan array binding signal (z-score) [22]: -0.853 | glycan array binding signal (z-score) [23]: -0.266 | glycan array binding signal (z-score) [24]: -0.433 | glycan array binding signal (z-score) [25]: 0.191 | glycan array binding signal (z-score) [26]: 0.232 | glycan array binding signal (z-score) (Gal(b1-4)Gal): -0.866 | glycan array binding signal (z-score) [27]: -0.497 | glycan array binding signal (z-score) [28]: -0.122
